This is an account of results in the M2OR odorant receptor database.

This is a selection; strong and weak results do not stand in their true shares. Calls are pooled over several reports, among them a noisy single-well screen. The list shows a part of the results. The list shows a part of the results.

What all share (settings): stereoisomer not certain
One test deals with T1, OR9G4.
T1 sequence (whole entry): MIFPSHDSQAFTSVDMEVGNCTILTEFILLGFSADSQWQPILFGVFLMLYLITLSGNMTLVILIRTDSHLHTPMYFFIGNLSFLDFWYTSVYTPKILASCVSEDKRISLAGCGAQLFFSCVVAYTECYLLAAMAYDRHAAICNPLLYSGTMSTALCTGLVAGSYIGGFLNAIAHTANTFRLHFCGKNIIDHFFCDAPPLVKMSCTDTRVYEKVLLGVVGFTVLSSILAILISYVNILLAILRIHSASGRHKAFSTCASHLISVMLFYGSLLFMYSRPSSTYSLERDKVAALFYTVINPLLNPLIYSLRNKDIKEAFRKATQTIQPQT
In short, it runs like this: (§1)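 Whether a receptor–molecule pair is responsive (active) rests on the original authors' judgment that its measured signal was statistically different from baseline. Pairs without that judgment are non-responsive (inactive). Sources used varied assay methods, commonly transient luciferase assays in mammalian cell lines.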

In test [1] the test system is T2, OR9G9.
T2 sequence (whole entry): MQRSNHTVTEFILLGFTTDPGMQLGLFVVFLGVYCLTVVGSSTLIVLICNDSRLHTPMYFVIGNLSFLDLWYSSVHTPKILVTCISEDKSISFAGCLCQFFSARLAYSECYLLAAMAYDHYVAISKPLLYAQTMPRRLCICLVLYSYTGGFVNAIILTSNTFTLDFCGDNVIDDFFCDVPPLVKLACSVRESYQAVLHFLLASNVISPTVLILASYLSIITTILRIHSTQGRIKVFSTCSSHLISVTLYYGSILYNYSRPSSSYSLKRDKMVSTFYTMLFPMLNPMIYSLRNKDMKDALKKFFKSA
In a few lines:
as §1

Test [2] deals with T3, OR9G9.
T3 sequence (whole entry): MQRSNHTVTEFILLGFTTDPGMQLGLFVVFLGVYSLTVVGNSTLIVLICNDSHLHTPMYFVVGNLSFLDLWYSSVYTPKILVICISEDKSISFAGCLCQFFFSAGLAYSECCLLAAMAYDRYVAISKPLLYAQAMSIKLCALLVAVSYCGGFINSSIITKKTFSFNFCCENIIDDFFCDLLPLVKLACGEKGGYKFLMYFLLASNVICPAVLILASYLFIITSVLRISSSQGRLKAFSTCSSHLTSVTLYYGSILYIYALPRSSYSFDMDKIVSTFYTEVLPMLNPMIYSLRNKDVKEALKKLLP
In a few lines:
as §1
This is another data set of the same source.

A further test deals with T4, OR9I1 (Homo sapiens) (UniProt Q8NGQ6).
T4 sequence (whole entry): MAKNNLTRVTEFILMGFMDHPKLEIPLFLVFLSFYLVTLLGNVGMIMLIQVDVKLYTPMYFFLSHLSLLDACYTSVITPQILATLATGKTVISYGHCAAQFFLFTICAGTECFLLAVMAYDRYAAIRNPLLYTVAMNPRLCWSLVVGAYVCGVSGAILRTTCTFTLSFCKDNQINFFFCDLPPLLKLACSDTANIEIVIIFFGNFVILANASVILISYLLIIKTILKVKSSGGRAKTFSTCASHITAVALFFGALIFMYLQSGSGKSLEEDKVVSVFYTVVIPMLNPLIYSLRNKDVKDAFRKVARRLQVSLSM
In a few lines: as §1

Another test has as its target T5, OR9K2 (Homo sapiens) (UniProt Q8NGE7).
T5 sequence (whole entry): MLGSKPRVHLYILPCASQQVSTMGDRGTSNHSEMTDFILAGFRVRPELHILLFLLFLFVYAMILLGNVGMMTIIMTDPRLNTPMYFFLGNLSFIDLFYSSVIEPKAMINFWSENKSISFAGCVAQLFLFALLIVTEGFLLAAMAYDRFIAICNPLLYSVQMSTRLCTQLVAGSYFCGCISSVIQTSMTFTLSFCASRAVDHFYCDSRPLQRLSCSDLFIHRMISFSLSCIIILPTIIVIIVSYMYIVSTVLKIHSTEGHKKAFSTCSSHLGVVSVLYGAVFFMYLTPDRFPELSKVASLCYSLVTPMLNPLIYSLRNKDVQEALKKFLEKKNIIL
In a few lines:
as §1

The next test concerns T6, OR9Q1.
T6 sequence (whole entry): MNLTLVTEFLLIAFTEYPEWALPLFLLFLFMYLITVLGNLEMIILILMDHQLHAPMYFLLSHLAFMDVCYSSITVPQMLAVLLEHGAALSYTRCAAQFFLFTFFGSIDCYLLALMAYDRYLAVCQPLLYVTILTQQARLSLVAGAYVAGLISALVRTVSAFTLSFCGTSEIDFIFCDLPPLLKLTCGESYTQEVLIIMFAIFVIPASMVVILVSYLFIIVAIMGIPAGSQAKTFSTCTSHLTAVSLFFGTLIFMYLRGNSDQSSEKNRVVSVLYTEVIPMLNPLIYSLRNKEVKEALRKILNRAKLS
In a few lines: as §1

Another test deals with T7, OR9Q2 (Homo sapiens) (UniProt Q8NGE9).
T7 sequence (whole entry): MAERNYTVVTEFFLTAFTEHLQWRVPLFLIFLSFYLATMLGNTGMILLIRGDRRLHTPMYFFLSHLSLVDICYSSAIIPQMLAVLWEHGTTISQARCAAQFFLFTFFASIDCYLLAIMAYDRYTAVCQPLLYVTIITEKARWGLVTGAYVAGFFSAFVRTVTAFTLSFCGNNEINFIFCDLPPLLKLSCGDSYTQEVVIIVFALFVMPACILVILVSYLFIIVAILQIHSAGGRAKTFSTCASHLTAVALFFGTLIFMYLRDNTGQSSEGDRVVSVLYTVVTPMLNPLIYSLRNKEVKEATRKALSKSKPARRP
In a few lines: as §1

The test system of another test is T8, OR9Q2.
T8 sequence (whole entry): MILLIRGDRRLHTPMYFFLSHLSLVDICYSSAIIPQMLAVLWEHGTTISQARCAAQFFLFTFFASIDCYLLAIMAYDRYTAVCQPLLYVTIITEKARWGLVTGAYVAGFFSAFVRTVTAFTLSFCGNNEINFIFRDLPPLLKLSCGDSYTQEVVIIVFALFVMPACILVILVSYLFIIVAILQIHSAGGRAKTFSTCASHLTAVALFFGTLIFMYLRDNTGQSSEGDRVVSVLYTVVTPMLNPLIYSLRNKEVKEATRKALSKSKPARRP
In short, it runs like this: as §1

The subject of another test is T9, ORM2B.
T9 sequence (whole entry): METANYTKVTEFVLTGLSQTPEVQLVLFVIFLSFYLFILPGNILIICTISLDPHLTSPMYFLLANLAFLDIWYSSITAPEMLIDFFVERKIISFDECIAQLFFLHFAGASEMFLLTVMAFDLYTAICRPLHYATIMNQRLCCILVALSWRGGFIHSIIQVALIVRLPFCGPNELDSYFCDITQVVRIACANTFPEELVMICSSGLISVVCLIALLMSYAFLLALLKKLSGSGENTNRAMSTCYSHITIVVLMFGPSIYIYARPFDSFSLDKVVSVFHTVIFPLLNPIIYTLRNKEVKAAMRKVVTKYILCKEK
In a few lines:
as §1

A further test has as its target T10, Or1m1 (Mus musculus) (UniProt Q8VFM9).
T10 sequence (whole entry): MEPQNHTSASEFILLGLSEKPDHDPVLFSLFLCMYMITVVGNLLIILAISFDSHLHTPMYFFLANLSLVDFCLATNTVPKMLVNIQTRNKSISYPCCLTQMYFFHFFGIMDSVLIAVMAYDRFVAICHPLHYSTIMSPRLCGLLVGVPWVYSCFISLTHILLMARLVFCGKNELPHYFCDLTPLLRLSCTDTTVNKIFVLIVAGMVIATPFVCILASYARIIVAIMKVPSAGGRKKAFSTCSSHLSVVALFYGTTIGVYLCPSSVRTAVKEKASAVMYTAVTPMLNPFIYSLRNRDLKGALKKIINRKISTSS
In short, it runs like this: as §1

Another test deals with T11, Or5ar1 (Mus musculus) (UniProt Q8VGS3).
T11 sequence (whole entry): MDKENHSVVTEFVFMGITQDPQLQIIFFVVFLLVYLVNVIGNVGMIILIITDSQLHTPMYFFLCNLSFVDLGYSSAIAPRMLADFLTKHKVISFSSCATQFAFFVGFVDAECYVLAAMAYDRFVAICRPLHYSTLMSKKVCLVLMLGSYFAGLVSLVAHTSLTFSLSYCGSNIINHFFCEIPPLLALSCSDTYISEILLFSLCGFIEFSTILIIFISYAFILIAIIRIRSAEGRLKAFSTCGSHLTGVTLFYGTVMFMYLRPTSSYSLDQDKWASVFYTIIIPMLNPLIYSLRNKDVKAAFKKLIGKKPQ
In a few lines: as §1

The target of another test is T12, Or2c1 (Mus musculus) (UniProt P23275).
T12 sequence (whole entry): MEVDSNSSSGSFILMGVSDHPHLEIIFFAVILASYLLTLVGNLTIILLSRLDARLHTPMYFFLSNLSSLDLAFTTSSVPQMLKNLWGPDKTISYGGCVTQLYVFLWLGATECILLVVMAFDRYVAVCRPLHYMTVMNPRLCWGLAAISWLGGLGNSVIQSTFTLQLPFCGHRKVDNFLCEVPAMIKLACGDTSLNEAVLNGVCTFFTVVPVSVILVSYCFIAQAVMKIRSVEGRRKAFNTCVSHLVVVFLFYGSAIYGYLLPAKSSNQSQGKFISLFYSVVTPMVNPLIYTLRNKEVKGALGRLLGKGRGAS
In short, it runs like this:
as §1

In the next test the target is T13, Or10j5 (Mus musculus) (UniProt Q62007).
T13 sequence (whole entry): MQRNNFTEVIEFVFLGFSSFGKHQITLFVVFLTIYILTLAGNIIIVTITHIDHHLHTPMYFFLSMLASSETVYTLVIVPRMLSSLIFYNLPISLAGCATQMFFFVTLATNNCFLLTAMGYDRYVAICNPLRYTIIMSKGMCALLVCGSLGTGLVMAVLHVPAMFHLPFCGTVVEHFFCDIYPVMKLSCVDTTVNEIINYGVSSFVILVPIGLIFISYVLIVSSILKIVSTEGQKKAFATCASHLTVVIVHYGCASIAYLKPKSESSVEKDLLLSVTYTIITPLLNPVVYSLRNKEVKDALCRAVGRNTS
In short, it runs like this:
as §1
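Further: active if original authors judged signal statistically different from baseline.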

For the compound `CC1COCc2cc3c(cc21)C(C)(C)C(C)C3(C)C` (centres undefined), the “odorant receptor agonist call” value in the test with OR9G4, in the test with OR9K2 (Homo sapiens), in the test with OR9Q1, with OR9Q2 (Homo sapiens), with OR9Q2 and in the test with ORM2B was “active” in each case. The “odorant receptor agonist call” value with Or1m1 (Mus musculus) is “active”. In addition, the “odorant receptor agonist call” value in the test on OR9G9 [1], in the test with OR9G9 [2], with OR9I1 (Homo sapiens) and in the test with Or5ar1 (Mus musculus) was “inactive” throughout.
For `c1cnccn1`, the “odorant receptor agonist call” value with OR9G4, in the test on OR9G9 [1], in the test on OR9G9 [2], with OR9I1 (Homo sapiens), in the test with OR9K2 (Homo sapiens) and in the test with OR9Q1 was “inactive” in each case. Besides, the “odorant receptor agonist call” value with OR9Q2 (Homo sapiens), with OR9Q2, in the test with ORM2B, with Or1m1 (Mus musculus) and in the test with Or5ar1 (Mus musculus) was “inactive” throughout.
Take `COC(=O)c1ccccc1O`: the “odorant receptor agonist call” value with OR9G4, in the test on OR9G9 [1], in the test with OR9G9 [2], with OR9I1 (Homo sapiens), with OR9K2 (Homo sapiens) and in the test on OR9Q1 was “inactive” each time. Moreover, the “odorant receptor agonist call” value with OR9Q2 (Homo sapiens), in the test on OR9Q2, in the test on ORM2B, in the test with Or1m1 (Mus musculus) and with Or5ar1 (Mus musculus) was “inactive” each time.
Turning to `CC12CCC(C1)C(C)(C)C2=O` (centres undefined), the “odorant receptor agonist call” value in the test on OR9G4, in the test with OR9G9 [1], with OR9G9 [2], in the test with OR9I1 (Homo sapiens), in the test with OR9K2 (Homo sapiens) and with OR9Q1 was “inactive” in each case. In addition, the “odorant receptor agonist call” value in the test with OR9Q2 (Homo sapiens), with OR9Q2, with ORM2B, with Or2c1 (Mus musculus) and with Or5ar1 (Mus musculus) was “inactive” throughout.
In the case of `CCCCO`, the “odorant receptor agonist call” value with OR9G4, with OR9G9 [1], with OR9G9 [2], in the test with OR9I1 (Homo sapiens), in the test with OR9K2 (Homo sapiens) and in the test with OR9Q1 was “inactive” throughout. The “odorant receptor agonist call” value with OR9Q2 (Homo sapiens), with OR9Q2, in the test on ORM2B, with Or10j5 (Mus musculus), with Or1m1 (Mus musculus) and in the test with Or5ar1 (Mus musculus) was “inactive” each time.
In the case of `COC(=O)c1ccccc1`, the “odorant receptor agonist call” value with OR9G4, with OR9G9 [1], with OR9I1 (Homo sapiens), in the test with OR9K2 (Homo sapiens), with OR9Q2 (Homo sapiens) and with OR9Q2 was “inactive” throughout. Also, the “odorant receptor agonist call” value with ORM2B is “inactive”. Also, the “odorant receptor agonist call” value with OR9G9 [2] was “active”.
